Library screen at single concentrations

Results are given as percent effect.
The controls that fix the scale are not given in the record; negative values are as filed.
This is an unselected part of the compounds tested.

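Phenotypic screen: M. tuberculosis growth, glucose 7H9 medium, 3 days; the read-out is not stated. Tested at 500 µM. The record gives no direction; compounds that gave an IC50 in retests scored well above the rest, so higher reads as more growth inhibition. About 18,000 compounds were tested under these conditions; 7.9% (about 1,400) showed 50% or more at least once.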

| structure | percent effect |
|---|---|
| `CS(=O)(=O)c1ccc(CN2CCN3CCCC3C2)cc1` (centres undefined) | 12.79 |
| `NC(=O)CC(NCc1ccc(Br)o1)C1CCOCC1` (centres undefined) | -12.49 |
| `Cc1cc(C)n2nc(CC(=O)NCC(F)(F)F)nc2n1` | -10.69 |
| `CC(C)Oc1ccc(S(=O)(=O)N(C)C(C)CN)cc1` (centres undefined) | 78.07 |
| `CCc1noc(CN(C)CC2CCN(C)CC2)n1` | 1.937 |
| `O=S(=O)(NCCO)N1CCCCC1` | 6.647 |
| `CCC(NC(=O)c1cccn1C(C)C)[C@H]1C[C@H](O)C1` (some centres undefined) | -13.79 |
| `NC(=O)CN1CCCCCC1` | -9.167 |
| `Cc1ccc(S(=O)(=O)N(C)C(C)CN)cc1` (centres undefined) | 44.54 |
| `CCC(CO)N1CCN(c2cccc(C)n2)CC1` (centres undefined) | 15 |
| `CC(=O)NC1C(=O)N(C(C)C)c2ccc(C)cc21` (centres undefined) | 17.05 |
| `NC1CCN(CC2CC2)CC1` | 13.06 |
| `CCN(CCC#N)C(=O)CNc1cc(F)ccc1F` | 6.664 |
| `O=C(NCCc1nnc[nH]1)C1SCCc2ccccc21` (centres undefined) | 15.98 |
| `CC(C)N1CC(C(=O)N2CCC(C)(C)C2)CC1=O` (centres undefined) | 14.98 |
| `CC(NC(=O)c1ccn(C2CCCC2)n1)c1ncon1` (centres undefined) | 1.906 |
| `NS(=O)(=O)c1ccc2c(c1)N(CC(=O)NC1CC1)CC2` | 9.73 |
| `Cc1cc(NC(=O)CCN2CCC(O)CC2)no1` | 3.889 |
| `CSCc1noc(CN2C[C@H](C3CC3)[C@@H](N)C2)n1` | 17.45 |
| `COCCCN(C)S(=O)(=O)c1ccc(Br)cn1` | 71.94 |
| `CN(Cc1ccco1)C(=O)c1cc(C2CC2)[nH]n1` | 75.42 |
| `O=C1CC(C(=O)NCc2ccco2)C2(CCCCC2)O1` (centres undefined) | 39.46 |
| `CCC(=O)c1cccc(S(=O)(=O)NC(CN)C2CC2)c1` (centres undefined) | 56.09 |
| `OCC1CSc2ccccc21` (centres undefined) | 24.2 |
| `CN(Cc1ccsc1)C(=O)CN1CCN(CCO)CC1` | 40.53 |
| `Cc1cc(C(=O)NC2CCC(=O)N(C)C2)on1` (centres undefined) | 1.425 |
| `COc1ccc(NC(=O)CSCC#N)cc1` | 22.29 |
| `NCC(O)CS(=O)(=O)c1cccs1` (centres undefined) | 13.91 |
| `NC(=O)c1sccc1NC(=O)c1ncccc1Br` | 33.18 |
| `CC1CCN(S(=O)(=O)N2CCN(S(C)(=O)=O)CC2)CC1` | 27.39 |
| `Cn1cc(-c2csc(N)n2)cn1` | 10 |
| `Cc1ccc(OCCOC(=O)N(C)C)nc1` | 4.907 |
| `Cc1cccc(CN2CCC3(CC2)[C@H](O)C[C@@H]3O)c1` | 8.65 |
| `NCCCn1cc(Cl)cn1` | 8.428 |
| `CN(CCCC1CCCO1)C(=O)c1ccc(CO)cc1` (centres undefined) | 12.57 |
| `CCCNC(=O)c1cc(Br)c[nH]1` | 52.28 |
| `Cc1ccc(Br)c(NCC(=O)N2CCOCC2)c1` | 2.673 |
| `CCn1nccc1NC(=O)c1ccccc1` | 3.88 |
| `N#Cc1cccc(NC(=O)CCN2CCOC2=O)c1` | 5.418 |
| `CC1=CCN(C(=O)c2ccsc2)CC1` | 42.56 |
| `CCC1(CO)CCCN(C(=O)CCc2cnccn2)C1` (centres undefined) | 2.316 |
| `CC1(C)C(=O)NCCN1C(=O)C1CCC1` | 5.54 |
| `CN(Cc1cc(Cl)cn1C)C(=O)c1cc(O)cc(O)c1` | 47 |
| `CN1CCC(CNC(=O)CCc2cccs2)C1` (centres undefined) | 24.17 |
| `CCOC(CC)CNC(=O)c1cnn(C(C)C)c1` (centres undefined) | 25.44 |
| `Cc1ccc(NC(=O)c2nn(C)cc2Br)nc1` | -4.089 |
| `Cc1nc(C(=O)NCCN2CCCCC2C)n(C)n1` (centres undefined) | -19.1 |
| `CCCc1noc(C(C)N2CCn3ccnc3C2)n1` (centres undefined) | 24.59 |
| `CC1CC(=O)N(CCc2ccc(F)c(F)c2)C1=O` (centres undefined) | 17.25 |
| `CC(C)Cc1cc(N)sn1` | 21.75 |
| `Cn1cc(Br)c(CO)n1` | 10.67 |
| `Cc1c[nH]c2ccccc2c1=N` | -23.74 |
| `Cc1nnnn1CCC(=O)NCc1csc(C(C)C)n1` | 18.2 |
| `CN(Cc1ncc[nH]1)c1cc(C2CC(N)C2)ncn1` (centres undefined) | 6.245 |
| `Oc1ccc(CNc2cccc(-c3nnc[nH]3)c2)cc1` | 31.38 |
| `CNCc1cccc(OC)n1` | 8.913 |
| `CCN1CCCC1CNS(=O)(=O)CCCC#N` (centres undefined) | -2.968 |
| `NC(=O)CN1CCCN(C(=O)c2cccs2)CC1` | 13.23 |
| `O=C1CCOc2cc(O)c(F)cc21` | 11.09 |
| `COc1ccc(CNC(=O)C2=COCCO2)cc1OC` | 41.92 |
| `O=C(N[C@@H]1CNC[C@H]1CO)C1CCC1` | 1.838 |
| `O=C1NC2(CCCCC2)C(=O)Nc2ccccc21` | 4.492 |
| `Cn1ccc(NC(=O)c2ccccc2)n1` | 8.999 |
| `CC(C)c1noc(CCNC(=O)Cc2ccncc2)n1` | 15.95 |
| `CC(C(=O)N1CCCC1)N(C)CCN1CCCC1` (centres undefined) | -0.3035 |
| `c1csc(COC2CCNC2)n1` (centres undefined) | -0.7919 |
| `Cc1cc(C(=O)N2CC(=O)Nc3ccccc32)no1` | 2.769 |
| `CC(=O)Nc1ccc(CCN)cc1` | 14.88 |
| `C[S+]([O-])c1nncn1Cc1ccccc1Cl` (centres undefined) | 20.47 |
| `CC(=O)Cc1ccn(C(C)C)n1` | -7.753 |
| `NS(=O)(=O)NCC1CCCN(CCC2CCCC2)C1` (centres undefined) | -2.904 |
| `CCN1CCN(C(=O)c2cccnc2SC(C)C)CC1` | 16.22 |
| `NC(=O)C1Cc2ccccc2CN1Cc1nnsc1Cl` (centres undefined) | 34.61 |
| `O=C(NCc1cccs1)c1cnsn1` | 70.42 |
| `CCNS(=O)(=O)C1CCN(Cc2ccn(C)c2)C1` (centres undefined) | 1.905 |
| `CCCNC(=O)CCn1nc(C)cc1C` | 6.131 |
| `Cc1cc(NC(=O)CN(C)Cc2ccccc2)no1` | 76.08 |
| `Cc1occc1C(=O)NCC(F)(F)F` | 4.065 |
| `CC(CN)S(C)(=O)=O` (centres undefined) | 2.956 |
| `CCNc1ncc(C(=O)N2CCSCC2)cn1` | 28.84 |
| `CC(C)C(O)CNC(=O)CC(C)(C)C` (centres undefined) | 10.57 |
| `CCN1CCCN(C(=O)c2ccc(F)cc2F)CC1` | 10.13 |

Data taken from ChEMBL document CHEMBL3988442, “University of Dundee, Small-Polar-MMV Screening Library” (2021).